Some of the results follow.
These sequences were tested against T1, OsSMF1 (Oryza sativa, UniProt Q6ZLB0 1-436) (assay: protein-binding microarray (RPBM); PBS, 2% BSA, 51.3 ng/ul salmon testes DNA, 50 uM zinc acetate, 200 nM TF, 25 C, 1 h; high values mean tight binding). Details: protein: recombinant; tags: N-terminal polyhistidine and DsRed monomer fusion (pET32a); chain copies: 2; label: CyDye5-dUTP incorporated in the synthesized complementary strand; 3' TTTTT single-stranded linker to array surface; dsDNA, one strand shown.
T1 sequence: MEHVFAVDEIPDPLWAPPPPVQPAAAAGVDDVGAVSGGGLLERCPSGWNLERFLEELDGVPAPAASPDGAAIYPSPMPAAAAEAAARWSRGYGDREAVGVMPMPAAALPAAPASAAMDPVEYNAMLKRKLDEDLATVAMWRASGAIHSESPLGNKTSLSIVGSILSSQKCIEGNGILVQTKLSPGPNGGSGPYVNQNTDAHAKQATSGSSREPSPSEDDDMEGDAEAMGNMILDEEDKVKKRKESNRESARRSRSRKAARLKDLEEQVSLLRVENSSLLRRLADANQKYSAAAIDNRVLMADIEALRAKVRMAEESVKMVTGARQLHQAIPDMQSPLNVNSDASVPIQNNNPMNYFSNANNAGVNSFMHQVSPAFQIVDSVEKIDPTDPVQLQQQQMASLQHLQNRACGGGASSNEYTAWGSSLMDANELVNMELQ
In short: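 Binding signal here means per-feature fluorescence intensity in arbitrary units. The values were read on an Axon 4000B scanner after a custom Agilent array, double-stranded by primer extension with Cy5-dUTP, was incubated with 200 nM protein at 25 °C for 1 h in PBS with 2% BSA, salmon testes DNA and 50 µM zinc acetate, then washed. The proteins were transcription factors with an N-terminal polyhistidine tag and DsRed, expressed in E. coli BL21-CodonPlus and purified on Ni–NTA.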

Sequence	binding signal
CCCCACGTCGGCCTCTTCTGACGTATAGTGCGTAGTAGCTCGGAGTCACCTAGTGCAG	5310 fluorescence intensity (a.u.)
CGAGCATGGCCCACACGTCAGCCACCTACCTGCCTAGAGGCGGAGTCACCTAGTGCAG	12300 fluorescence intensity (a.u.)
ATATATATATATATATATATATGGAATACATCATATCCAACGGAGTCACCTAGTGCAG	3400 fluorescence intensity (a.u.)
AACATGGCGTCTACGTGGCAGTATTGACTAGGTCTTCGTCCGGAGTCACCTAGTGCAG	17000 fluorescence intensity (a.u.)
GTTGAGTCGGGTGTCCCAGAGACACGTTTGTTAGGCAGCGCGGAGTCACCTAGTGCAG	4220 fluorescence intensity (a.u.)
AATATGGATTATTACCAAGAATTTATCCGTTGTTTTGCTACGGAGTCACCTAGTGCAG	40700 fluorescence intensity (a.u.)
AGCAGATCACCTCAGCTTCAACTGCCCTTTTGCTATCAGTCGGAGTCACCTAGTGCAG	3250 fluorescence intensity (a.u.)
CTCTCCTCTCCTCGCGAGTTTCCTCATCAAAATCGCCTTCCGGAGTCACCTAGTGCAG	3140 fluorescence intensity (a.u.)
GTTGCGACAACAATCTGACTAAGACAGAAGCTGTAGCCTTCGGAGTCACCTAGTGCAG	3720 fluorescence intensity (a.u.)
GTGGGTCCCACGCTGACTCAGCCGCCACGTAGACTAAAACCGGAGTCACCTAGTGCAG	23600 fluorescence intensity (a.u.)
ACGCGTCTTCCTGCCCATCCCCGGCGGCGGCGGCGGCGTCCGGAGTCACCTAGTGCAG	25600 fluorescence intensity (a.u.)
GTATATTCTCAGCTTCAATATTATTAACGTTGTCATATTGCGGAGTCACCTAGTGCAG	3450 fluorescence intensity (a.u.)
TTCCGCTCTCGCTAGCTATACGCCTATACCCCACCCGTCGCGGAGTCACCTAGTGCAG	30800 fluorescence intensity (a.u.)
GCAGTGGTACTCGGTGTGACCTGGTGGAGGCCGTGCTCTCCGGAGTCACCTAGTGCAG	3400 fluorescence intensity (a.u.)
TTGTTTGTCAGATGTAGTGTGCATGTGTGGCATTGCATCACGGAGTCACCTAGTGCAG	4070 fluorescence intensity (a.u.)
GAGTTGGTGTGGGTGGGATTGGCATTGTATCGTGAGAGAGCGGAGTCACCTAGTGCAG	3170 fluorescence intensity (a.u.)
AGTGCGAAGTTTGGTGTGTCGTTGTCACGTAACCTTCCCTCGGAGTCACCTAGTGCAG	3240 fluorescence intensity (a.u.)
ACCAGACCCACCTGTCAGTGACGCGGTTCGGACGAATCCCCGGAGTCACCTAGTGCAG	5120 fluorescence intensity (a.u.)
GCACATAGGTGTAGTGTTTGCGTGCGTGTCTTCATAAGAGCGGAGTCACCTAGTGCAG	3500 fluorescence intensity (a.u.)
GTCGTCGCCAAGGAATCATCCATGACGTCAGTCGCCGTGCCGGAGTCACCTAGTGCAG	7050 fluorescence intensity (a.u.)
TCTAGAAATAACACGTGGTGATTAATATGGTTGTTTGAACCGGAGTCACCTAGTGCAG	5460 fluorescence intensity (a.u.)

Sequence	binding signal
GCTCCATACTGTATGCCACGTCCCGTAAGAATACATGACACGGAGTCACCTAGTGCAG	6790 fluorescence intensity (a.u.)
TAAGCAGATTCACAATCAAGTACACAGGCAAGGACGTACGCGGAGTCACCTAGTGCAG	23300 fluorescence intensity (a.u.)
AGGAGTGATCGGCTGTTCTCCTGCCACGTCACCGGAATCGCGGAGTCACCTAGTGCAG	25400 fluorescence intensity (a.u.)
AGACTTCACCTGACCTTGCCTTGCCGGCCAGCGTGGACTCCGGAGTCACCTAGTGCAG	3530 fluorescence intensity (a.u.)
CTCGCCTCCGACCCCGGCCATGGCCTCCTCACGTCGGCTTCGGAGTCACCTAGTGCAG	3160 fluorescence intensity (a.u.)
ATCCGGAACACAGGACCATTCGATTTTAAGCAATCGGATGCGGAGTCACCTAGTGCAG	3950 fluorescence intensity (a.u.)
AATCTATGCATATATATATATATATATATGTCTAGATTCACGGAGTCACCTAGTGCAG	3240 fluorescence intensity (a.u.)
GATGGAGCATCACCGGCTTAATTAATTACGCGTCACTTGCCGGAGTCACCTAGTGCAG	6000 fluorescence intensity (a.u.)
CTGGACTCTGCTGCCACGTGTACTTATAAAATTGTCCCCTCGGAGTCACCTAGTGCAG	33600 fluorescence intensity (a.u.)
TTTGGTCAATATACACACTCCGTAATCACCCGGTACAACGCGGAGTCACCTAGTGCAG	3950 fluorescence intensity (a.u.)
CGGCCGGCGGCGGGCGCGGCTGGCGACGATGACGACGCAGCGGAGTCACCTAGTGCAG	6100 fluorescence intensity (a.u.)
ACTCCCCACCCATATATGAACACGCGCGGCGCCGCAGCGACGGAGTCACCTAGTGCAG	3550 fluorescence intensity (a.u.)
CTGAAATGTAGGAATGGAGAGTTCGAAAACAAAGTGGCACCGGAGTCACCTAGTGCAG	3950 fluorescence intensity (a.u.)
AAATGGGGCCTAGAGTTCCAACCAATTGCAGCAAGAGCAGCGGAGTCACCTAGTGCAG	3230 fluorescence intensity (a.u.)
GCACCGACCGAGCGAGCAAATGAGGAGTGGGAAGGTGACGCGGAGTCACCTAGTGCAG	3160 fluorescence intensity (a.u.)
TATGTGCGCTCATGGATCACATTGTTTTACCTAACTGGTCCGGAGTCACCTAGTGCAG	28900 fluorescence intensity (a.u.)
TCGTATTAAATACGATGACTTCACTTCACGATAAATATCACGGAGTCACCTAGTGCAG	3230 fluorescence intensity (a.u.)
CGAAATTGGATGAAATGGCAATGTGGCAAGATGGTGACGTCGGAGTCACCTAGTGCAG	5320 fluorescence intensity (a.u.)
CACCAGCCCACCATCCACCGCCACGTGGGACCCACCGCCCCGGAGTCACCTAGTGCAG	13000 fluorescence intensity (a.u.)
TCGTTTGTGATCGTACGCTAGCTCTCTCGACGATGCCTGACGGAGTCACCTAGTGCAG	3390 fluorescence intensity (a.u.)
TGCCTCGTAAATGCACAAAATCGGAGGGGTTTTATGCAAACGGAGTCACCTAGTGCAG	20200 fluorescence intensity (a.u.)

2 entries from above, with each value named:
CGGCCGGCGGCGGGCGCGGCTGGCGACGATGACGACGCAGCGGAGTCACCTAGTGCAG
  binding signal: 6100 fluorescence intensity (a.u.)
CTGAAATGTAGGAATGGAGAGTTCGAAAACAAAGTGGCACCGGAGTCACCTAGTGCAG
  binding signal: 3950 fluorescence intensity (a.u.)

As entered above.
Entry for TATGTGCGCTCATGGATCACATTGTTTTACCTAACTGGTCCGGAGTCACCTAGTGCAG under binding signal: 28900 fluorescence intensity (a.u.)
Entry for CTCGCCTCCGACCCCGGCCATGGCCTCCTCACGTCGGCTTCGGAGTCACCTAGTGCAG under binding signal: 3160 fluorescence intensity (a.u.)
Entry for TCGTATTAAATACGATGACTTCACTTCACGATAAATATCACGGAGTCACCTAGTGCAG under binding signal: 3230 fluorescence intensity (a.u.)
Entry for GATGGAGCATCACCGGCTTAATTAATTACGCGTCACTTGCCGGAGTCACCTAGTGCAG under binding signal: 6000 fluorescence intensity (a.u.)

Later entries

Sequence	binding signal
TTTATAACGGCCGTTCTGGTCCAAATACGAGCCCATTACACGGAGTCACCTAGTGCAG	3270 fluorescence intensity (a.u.)
ATATCTGACCGTGACTTACAGAGTAGCAACAGGGCCCAATCGGAGTCACCTAGTGCAG	3290 fluorescence intensity (a.u.)
AGTCCTGGATCCATCTCAGCGCCACGTCAACTGGTGCTGACGGAGTCACCTAGTGCAG	6800 fluorescence intensity (a.u.)
CTCCTCCGCCTCCCCGCCATCATTCCTCCTTCACCCTAGCCGGAGTCACCTAGTGCAG	3710 fluorescence intensity (a.u.)
GCGCCCGTCCAGTGGCGACTGGCGATGTATATATCCTTTGCGGAGTCACCTAGTGCAG	3140 fluorescence intensity (a.u.)
ATGAATGACCCTGCGACAACAAACCACATCATATCATGCGCGGAGTCACCTAGTGCAG	3740 fluorescence intensity (a.u.)
TTAGCCCACTACTCCCTTCTCAATCTTGACGTGTCACCGCCGGAGTCACCTAGTGCAG	17300 fluorescence intensity (a.u.)
GGGTAACGGAATTAGAAAGTGGTGTGAATGGAATCAGATCCGGAGTCACCTAGTGCAG	25600 fluorescence intensity (a.u.)
TACAAAGCCATCGATGTATGGTGATGATGCTGTCAGATACCGGAGTCACCTAGTGCAG	4510 fluorescence intensity (a.u.)
TCGCCCCGCCAAATCCCCACCGCTCCAAATTTCGAAAACCCGGAGTCACCTAGTGCAG	6260 fluorescence intensity (a.u.)
GTTTTCTAGTCATGTCTATCCTATTAGGTGTCTTTCTATTCGGAGTCACCTAGTGCAG	4090 fluorescence intensity (a.u.)
TCCAACTCACACCGTGTGCTGATGTGGCATGCCATGGTGGCGGAGTCACCTAGTGCAG	35900 fluorescence intensity (a.u.)
TCCTCTTGCCTCCTCCGCTGAGGCAGCCAGTGCGTGCGCCCGGAGTCACCTAGTGCAG	3360 fluorescence intensity (a.u.)
ATTGTCAAAATCATGGCGTAATTAGACTCAAAAGATCCGTCGGAGTCACCTAGTGCAG	21700 fluorescence intensity (a.u.)
GAAGAGAATCAGAGATGGTGGTGTGTCGTTGAACACGTTGCGGAGTCACCTAGTGCAG	3390 fluorescence intensity (a.u.)
AATTTTGGCATGTATGTGAGGTTGCATCTTTACTTGTACACGGAGTCACCTAGTGCAG	3200 fluorescence intensity (a.u.)
CACAAACTTATGAAATCTATGATTAGTCAGCTAGCCGTTGCGGAGTCACCTAGTGCAG	6550 fluorescence intensity (a.u.)
AATCCATCTGCTTGGATCATCAAAATCATAATATTATGTGCGGAGTCACCTAGTGCAG	3270 fluorescence intensity (a.u.)
CACTTCTGTACTTGGCGTGATTGGGCCGCGGACCGGTAGACGGAGTCACCTAGTGCAG	3190 fluorescence intensity (a.u.)
GAGTTGATGTTTTAGTTGAGCGAAAAGAGAAAACGAGGAGCGGAGTCACCTAGTGCAG	37500 fluorescence intensity (a.u.)
CGGGAGGAATCTACCCATGGGAGTGGGACGCCCAATGCCTCGGAGTCACCTAGTGCAG	20300 fluorescence intensity (a.u.)

Sequence	binding signal
CCCATGGCGTGCCACTCCGGCGGTCCGGCCGCCACGTCAGCGGAGTCACCTAGTGCAG	38500 fluorescence intensity (a.u.)
ACTAGCTAGTGATCGTATCAGTGTCTGTCACCTGCAGGATCGGAGTCACCTAGTGCAG	3280 fluorescence intensity (a.u.)
GTGGAGTGAATTTCATGACTAGGTCAATTTTAGTAATGTTCGGAGTCACCTAGTGCAG	3220 fluorescence intensity (a.u.)
TCCACAGAAAACATGAGAAGGATGAACAAATGCATGCCATCGGAGTCACCTAGTGCAG	36600 fluorescence intensity (a.u.)
TCGCACACCACAACACACACCTGCCGGCCCCATCACCCCGCGGAGTCACCTAGTGCAG	3190 fluorescence intensity (a.u.)
ATCGAGGTATTCAAAGTGAACTTATTTTCCATACGTATACCGGAGTCACCTAGTGCAG	5350 fluorescence intensity (a.u.)
ATCTGTTTTATAGTATGTCATATCATTCACAACATTGGGTCGGAGTCACCTAGTGCAG	4120 fluorescence intensity (a.u.)
TTAGAGATGCTGCGTTGTCGTGAGTACTCTCTTTCCTTCGCGGAGTCACCTAGTGCAG	3680 fluorescence intensity (a.u.)
CCGCTATGCCGCCACGTCTTCCACAATGGAAAGGCCCATACGGAGTCACCTAGTGCAG	7280 fluorescence intensity (a.u.)
AAACATAAGATGCCAAGTGGCATATCTCTACTGTTTTGCCCGGAGTCACCTAGTGCAG	3950 fluorescence intensity (a.u.)
GAGGAGGAACGATGGTGGCTCATGGAGAAAGAGCGTTACGCGGAGTCACCTAGTGCAG	22600 fluorescence intensity (a.u.)
ACGTACCAACGCGCGCACCGGAGCTTTGCACACGTATACGCGGAGTCACCTAGTGCAG	5940 fluorescence intensity (a.u.)
CTGTCTACTAGTAGTACTACTGCTACCTGCCCCTGTCAGTCGGAGTCACCTAGTGCAG	8850 fluorescence intensity (a.u.)
AAGGTAGAGGAGGAGAAGTTGGGGTTTGGGAGGGCCAGCGCGGAGTCACCTAGTGCAG	3290 fluorescence intensity (a.u.)
GGTATGACTTGCTGAGTACAGTGGGTAGTACTCAGTCTTGCGGAGTCACCTAGTGCAG	3210 fluorescence intensity (a.u.)
AGCCAAAGATTTATGCGAACAAGAACGAGCTGACGAATCACGGAGTCACCTAGTGCAG	3700 fluorescence intensity (a.u.)
CCGGCGGCGGTGGCCGTGACGGTGGCGACGGCCATGCTGACGGAGTCACCTAGTGCAG	3240 fluorescence intensity (a.u.)
GTGCCCGGTATCGACAGTTGGAGGATGAATTATACCCGGTCGGAGTCACCTAGTGCAG	37500 fluorescence intensity (a.u.)
AAAATATGACTAACTATGACAGGTATGAACGGTGAGCTGCCGGAGTCACCTAGTGCAG	3510 fluorescence intensity (a.u.)
AAGCCTAAAACCTCCCCATCCACGTCACCCATCCTCCTCCCGGAGTCACCTAGTGCAG	22300 fluorescence intensity (a.u.)
TGGCAAGTCATCGTCCAGCTAAGCTGTATCTATCCGTAGTCGGAGTCACCTAGTGCAG	4110 fluorescence intensity (a.u.)
